Some entries share one result that the patent states for a list of compounds.
Test system: HeLa cells
Details: 3 h, 37° C.

Which “Effect of verapamil (100 μM) on intracellular fluorescence” value (shortened to “Effect of verapamil (100 μM)”) does the source give for `CC(=O)O[C@H]1C(=O)[C@]2(C)[C@@H](OC(=O)CCCNC(=O)c3cc4cc(F)c(O)cc4oc3=O)C[C@H]3OC[C@@]3(OC(C)=O)[C@H]2[C@H](OC(=O)c2ccccc2)[C@]2(O)C[C@H](OC(=O)[C@H](O)[C@@H](NC(=O)c3ccccc3)c3ccccc3)C(C)=C1C2(C)C` [Compound 9, (2aR,4S,4aS,6R,9S,11S,12S,12bS)-9-(((2R,3S)-3-benzamido-2-hydroxy-3-phenylpropanoyl)oxy)-12-(benzoyloxy)-4-((4-(6-fluoro-7-hydroxy-2-oxo-2H-chromene-3-carboxamido)butanoyl)oxy)-11-hydroxy-4a,8,13,13-tetramethyl-5-oxo-3,4,4a,5,6,9,10,11,12,12a-decahydro-1H-7,11-methanocyclodeca[3,4]benzo[1,2-b]oxete-6,12b(2aH)-diyl diacetate] here?
Its value is “substantially enhances the intracellular fluorescence”.

For `CC(=O)O[C@H]1C(=O)[C@]2(C)[C@@H](OC(=O)CCCNC(=O)c3cc4c(F)cc(O)cc4oc3=O)C[C@H]3OC[C@@]3(OC(C)=O)[C@H]2[C@H](OC(=O)c2ccccc2)[C@]2(O)C[C@H](OC(=O)[C@H](O)[C@@H](NC(=O)c3ccccc3)c3ccccc3)C(C)=C1C2(C)C` [Compound 8, (2aR,4S,4aS,6R,9S,11S,12S,12bS)-9-(((2R,3S)-3-benzamido-2-hydroxy-3-phenylpropanoyl)oxy)-12-(benzoyloxy)-4-((4-(5-fluoro-7-hydroxy-2-oxo-2H-chromene-3-carboxamido)butanoyl)oxy)-11-hydroxy-4a,8,13,13-tetramethyl-5-oxo-3,4,4a,5,6,9,10,11,12,12a-decahydro-1H-7,11-methanocyclodeca[3,4]benzo[1,2-b]oxete-6,12b(2aH)-diyl diacetate], which “Effect of verapamil (100 μM)” value is on record?
Its value is “substantially enhances the intracellular fluorescence”.

For `CC(=O)O[C@H]1C(=O)[C@]2(C)[C@@H](OC(=O)CCCNC(=O)c3cc4ccc(O)c(F)c4oc3=O)C[C@H]3OC[C@@]3(OC(C)=O)[C@H]2[C@H](OC(=O)c2ccccc2)[C@]2(O)C[C@H](OC(=O)[C@H](O)[C@@H](NC(=O)c3ccccc3)c3ccccc3)C(C)=C1C2(C)C` [Compound 10, (2aR,4S,4aS,6R,9S,11S,12S,12bS)-9-(((2R,3S)-3-Benzamido-2-hydroxy-3-phenylpropanoyl)oxy)-12-(benzoyloxy)-4-((4-(8-fluoro-7-hydroxy-2-oxo-2H-chromene-3-carboxamido)butanoyl)oxy)-11-hydroxy-4a,8,13,13-tetramethyl-5-oxo-3,4,4a,5,6,9,10,11,12,12a-decahydro-1H-7,11-methanocyclodeca[3,4]benzo[1,2-b]oxete-6,12b(2aH)-diyl diacetate], which “Effect of verapamil (100 μM)” value is on record?
The value was “substantially enhances the intracellular fluorescence”.

— patent US20260258021A1, “MONOFLUORINATED COUMARIN FLUOROPHORES AND USES THEREOF” (Ohio State Innovation Foundation, priority 2023, published 2026)
